Experimental data taken from article PMC4558130.
Results are given in words; binding and its absence hold for the method and conditions named. Binding seen in cells or lysates may run through a third protein. Some binding calls cover weakened binding; strength is not graded here. For some assays here: Tags and fused reporters may be left off the sequences shown.

Protein sequences, listed by entry. Tags and fused reporters are not part of them.
UniProt Q04206: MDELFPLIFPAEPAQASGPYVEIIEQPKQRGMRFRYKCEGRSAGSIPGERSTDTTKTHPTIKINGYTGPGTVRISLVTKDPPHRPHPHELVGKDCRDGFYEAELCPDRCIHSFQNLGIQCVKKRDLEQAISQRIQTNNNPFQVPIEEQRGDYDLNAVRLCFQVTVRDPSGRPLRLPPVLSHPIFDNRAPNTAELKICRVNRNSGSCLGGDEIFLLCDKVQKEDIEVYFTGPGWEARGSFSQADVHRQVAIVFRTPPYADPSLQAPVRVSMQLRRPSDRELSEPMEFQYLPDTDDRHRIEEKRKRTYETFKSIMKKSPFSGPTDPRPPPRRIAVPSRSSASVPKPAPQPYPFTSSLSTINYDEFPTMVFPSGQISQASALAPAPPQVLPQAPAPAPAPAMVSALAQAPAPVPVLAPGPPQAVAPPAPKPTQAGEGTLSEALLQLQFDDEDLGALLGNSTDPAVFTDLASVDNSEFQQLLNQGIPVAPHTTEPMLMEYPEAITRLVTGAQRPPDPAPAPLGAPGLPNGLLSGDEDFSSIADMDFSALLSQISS

How the values were obtained:
[1] = target: T1, endogenous RRAD (human (endogenous in H1299)) (UniProt P55042); assay: co-IP; endogenous RRAD and endogenous p65 in H1299 cells; IP antibody not stated
T1 sequence: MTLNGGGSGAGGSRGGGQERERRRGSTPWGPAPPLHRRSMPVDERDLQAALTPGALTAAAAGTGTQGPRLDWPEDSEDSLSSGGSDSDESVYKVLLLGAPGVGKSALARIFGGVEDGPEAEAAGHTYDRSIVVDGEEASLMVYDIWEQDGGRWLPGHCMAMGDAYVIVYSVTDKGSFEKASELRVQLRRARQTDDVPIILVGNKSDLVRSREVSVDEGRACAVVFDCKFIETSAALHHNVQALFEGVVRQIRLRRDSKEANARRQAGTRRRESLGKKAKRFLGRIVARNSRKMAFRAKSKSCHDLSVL

[2] = target: T2, RRAD-Flag (wild type) (human) (UniProt P55042); assay: co-IP; H1299 cells expressing RRAD-Flag (WT or deletion mutant) and p65-HA; lysates in NP-40 buffer (50mM Tris-HCl pH 7.5, 1% NP-40, 150mM NaCl, 5 mM EDTA); IP with anti-Flag M2 or anti-HA overnight; Western blot
T2 sequence: T1 sequence

binding [1] | binding [2] | Substance
binds |  | endogenous p65 (from UniProt Q04206 1-551)
 | binds | p65-HA (from UniProt Q04206 1-551)
